Literature values as cited in patent US20130078613A1, “Selection of HCV Treatment” (ROCHE MOLECULAR SYSTEMS, priority 2011, published 2013).
Like-named read-outs stand apart in the source and are kept apart here. At least one compound was matched to its structure with a doubt left.

System: HCV genotype 1
Settings: cited from earlier work

CC(C)(C)NC(=O)N[C@H](C(=O)N1C[C@H]2[C@@H]([C@H]1C(=O)NC(CC1CCC1)C(=O)C(N)=O)C2(C)C)C(C)(C)C (stereo partly shown) [boceprevir]
SVR rate (IL28B CC, 63/77): 82%
SVR rate (IL28B CT, 67/103): 65%
SVR rate (IL28B TT, 23/42): 55%
overall SVR (RGT group, overall, 233/368): 63%
